In patent US8829067B2, “Polymerizable compositions with initiators containing several Ge atoms” (Ivoclar Vivadent AG, priority 2008, dated 2014):

Assay: Photopolymerization in resin mixture D3MA:UDMA:bis-GMA=1:1:1

With bisacyl diethylgermanium the “reactivity compared with camphorquinone/amine” value (15-fold dilution of the initiator) was “comparable with camphorquinone/amine”, the “curing time compared with campherquinone/amine” value (D3MA:UDMA:bis-GMA=1:1:1) was “halved” and the “polymerization rate (Rp) compared with camphorquinone in combination with an amine accelerator” value (same formulation D3MA:UDMA:bis-GMA=1:1:1) was “almost double”.
